This is one part of the list.

The chains behind the UniProt entries cited, without tags or fusion partners. Where a name states a change or a piece, a line headed by the entry shows the natural chain unless it says otherwise.
UniProt P09496: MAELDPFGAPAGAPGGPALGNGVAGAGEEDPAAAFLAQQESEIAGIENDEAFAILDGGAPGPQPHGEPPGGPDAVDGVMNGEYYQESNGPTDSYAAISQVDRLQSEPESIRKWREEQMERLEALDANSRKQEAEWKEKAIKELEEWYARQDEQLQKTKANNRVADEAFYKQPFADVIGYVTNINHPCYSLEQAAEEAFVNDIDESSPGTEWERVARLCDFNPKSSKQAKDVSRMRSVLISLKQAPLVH
UniProt Q9H6Q4: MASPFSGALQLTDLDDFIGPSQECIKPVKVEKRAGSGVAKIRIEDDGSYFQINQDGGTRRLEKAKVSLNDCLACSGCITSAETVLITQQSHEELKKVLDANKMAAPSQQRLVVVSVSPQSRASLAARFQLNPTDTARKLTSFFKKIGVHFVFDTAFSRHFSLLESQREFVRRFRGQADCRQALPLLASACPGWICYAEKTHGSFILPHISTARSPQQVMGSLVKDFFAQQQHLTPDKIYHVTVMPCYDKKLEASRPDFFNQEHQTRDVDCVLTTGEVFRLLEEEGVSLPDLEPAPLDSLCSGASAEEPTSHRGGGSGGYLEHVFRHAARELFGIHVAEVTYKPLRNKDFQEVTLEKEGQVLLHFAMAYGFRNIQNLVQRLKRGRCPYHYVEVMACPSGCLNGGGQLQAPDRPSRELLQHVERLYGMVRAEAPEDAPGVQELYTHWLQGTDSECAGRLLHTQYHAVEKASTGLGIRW
UniProt Q00610: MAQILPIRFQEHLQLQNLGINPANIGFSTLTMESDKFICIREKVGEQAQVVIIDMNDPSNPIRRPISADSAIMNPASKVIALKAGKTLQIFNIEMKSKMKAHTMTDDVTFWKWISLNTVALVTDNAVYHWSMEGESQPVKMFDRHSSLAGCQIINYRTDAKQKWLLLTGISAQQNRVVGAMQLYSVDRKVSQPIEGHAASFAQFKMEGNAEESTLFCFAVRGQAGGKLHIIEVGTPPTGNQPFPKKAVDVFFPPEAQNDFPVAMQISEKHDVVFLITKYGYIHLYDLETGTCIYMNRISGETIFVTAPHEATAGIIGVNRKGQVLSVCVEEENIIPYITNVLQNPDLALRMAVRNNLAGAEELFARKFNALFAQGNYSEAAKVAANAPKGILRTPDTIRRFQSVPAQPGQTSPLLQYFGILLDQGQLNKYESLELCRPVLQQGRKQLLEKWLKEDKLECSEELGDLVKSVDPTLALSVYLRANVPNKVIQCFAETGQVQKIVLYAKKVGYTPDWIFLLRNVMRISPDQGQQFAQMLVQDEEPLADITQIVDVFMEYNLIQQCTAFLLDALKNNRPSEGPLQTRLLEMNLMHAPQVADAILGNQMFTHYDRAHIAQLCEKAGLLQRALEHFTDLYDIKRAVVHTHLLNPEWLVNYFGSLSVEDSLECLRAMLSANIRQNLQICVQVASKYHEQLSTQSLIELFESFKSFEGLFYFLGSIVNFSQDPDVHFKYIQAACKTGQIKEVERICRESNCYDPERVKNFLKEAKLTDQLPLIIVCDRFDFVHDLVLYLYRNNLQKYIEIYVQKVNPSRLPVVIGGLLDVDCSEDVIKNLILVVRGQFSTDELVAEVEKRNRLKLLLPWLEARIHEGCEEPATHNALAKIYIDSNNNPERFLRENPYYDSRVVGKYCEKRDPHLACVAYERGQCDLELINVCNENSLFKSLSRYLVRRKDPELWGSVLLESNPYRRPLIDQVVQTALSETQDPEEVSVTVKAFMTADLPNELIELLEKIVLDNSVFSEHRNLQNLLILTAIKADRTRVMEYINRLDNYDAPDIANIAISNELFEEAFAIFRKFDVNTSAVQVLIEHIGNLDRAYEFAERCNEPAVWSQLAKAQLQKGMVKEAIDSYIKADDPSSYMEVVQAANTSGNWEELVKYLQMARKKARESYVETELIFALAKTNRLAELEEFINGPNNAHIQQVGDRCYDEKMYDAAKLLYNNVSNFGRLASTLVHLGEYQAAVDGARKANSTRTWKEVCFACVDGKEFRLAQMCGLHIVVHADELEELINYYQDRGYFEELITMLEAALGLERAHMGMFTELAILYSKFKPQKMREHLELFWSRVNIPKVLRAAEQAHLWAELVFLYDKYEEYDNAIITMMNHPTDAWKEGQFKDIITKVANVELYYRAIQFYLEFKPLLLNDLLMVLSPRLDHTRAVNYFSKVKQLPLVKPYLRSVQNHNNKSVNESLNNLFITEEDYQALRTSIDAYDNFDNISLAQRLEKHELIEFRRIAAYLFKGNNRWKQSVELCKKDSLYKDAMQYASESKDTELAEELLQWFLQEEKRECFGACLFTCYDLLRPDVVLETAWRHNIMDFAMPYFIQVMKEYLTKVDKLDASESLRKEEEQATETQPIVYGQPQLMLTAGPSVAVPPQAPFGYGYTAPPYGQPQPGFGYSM
UniProt Q9BRQ6: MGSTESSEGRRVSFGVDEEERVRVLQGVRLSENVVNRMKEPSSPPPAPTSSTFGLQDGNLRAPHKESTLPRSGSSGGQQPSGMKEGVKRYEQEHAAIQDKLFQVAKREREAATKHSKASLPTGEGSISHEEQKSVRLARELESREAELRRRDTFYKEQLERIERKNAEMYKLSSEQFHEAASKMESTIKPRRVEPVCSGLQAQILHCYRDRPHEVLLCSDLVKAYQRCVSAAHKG
UniProt Q96FZ7: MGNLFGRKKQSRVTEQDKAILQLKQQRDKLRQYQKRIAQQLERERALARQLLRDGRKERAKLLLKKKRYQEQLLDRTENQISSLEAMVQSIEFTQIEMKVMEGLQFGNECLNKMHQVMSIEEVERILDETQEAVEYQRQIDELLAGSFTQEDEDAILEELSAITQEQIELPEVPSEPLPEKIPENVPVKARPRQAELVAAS
UniProt Q9BQ75: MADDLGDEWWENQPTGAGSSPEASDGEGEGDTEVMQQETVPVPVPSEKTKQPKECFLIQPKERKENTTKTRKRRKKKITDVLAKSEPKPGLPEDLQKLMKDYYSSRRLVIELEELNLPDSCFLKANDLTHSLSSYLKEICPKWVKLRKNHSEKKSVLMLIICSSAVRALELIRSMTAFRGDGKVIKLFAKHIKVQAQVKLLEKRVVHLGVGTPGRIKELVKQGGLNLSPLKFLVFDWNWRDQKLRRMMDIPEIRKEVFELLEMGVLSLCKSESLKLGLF
UniProt Q14839: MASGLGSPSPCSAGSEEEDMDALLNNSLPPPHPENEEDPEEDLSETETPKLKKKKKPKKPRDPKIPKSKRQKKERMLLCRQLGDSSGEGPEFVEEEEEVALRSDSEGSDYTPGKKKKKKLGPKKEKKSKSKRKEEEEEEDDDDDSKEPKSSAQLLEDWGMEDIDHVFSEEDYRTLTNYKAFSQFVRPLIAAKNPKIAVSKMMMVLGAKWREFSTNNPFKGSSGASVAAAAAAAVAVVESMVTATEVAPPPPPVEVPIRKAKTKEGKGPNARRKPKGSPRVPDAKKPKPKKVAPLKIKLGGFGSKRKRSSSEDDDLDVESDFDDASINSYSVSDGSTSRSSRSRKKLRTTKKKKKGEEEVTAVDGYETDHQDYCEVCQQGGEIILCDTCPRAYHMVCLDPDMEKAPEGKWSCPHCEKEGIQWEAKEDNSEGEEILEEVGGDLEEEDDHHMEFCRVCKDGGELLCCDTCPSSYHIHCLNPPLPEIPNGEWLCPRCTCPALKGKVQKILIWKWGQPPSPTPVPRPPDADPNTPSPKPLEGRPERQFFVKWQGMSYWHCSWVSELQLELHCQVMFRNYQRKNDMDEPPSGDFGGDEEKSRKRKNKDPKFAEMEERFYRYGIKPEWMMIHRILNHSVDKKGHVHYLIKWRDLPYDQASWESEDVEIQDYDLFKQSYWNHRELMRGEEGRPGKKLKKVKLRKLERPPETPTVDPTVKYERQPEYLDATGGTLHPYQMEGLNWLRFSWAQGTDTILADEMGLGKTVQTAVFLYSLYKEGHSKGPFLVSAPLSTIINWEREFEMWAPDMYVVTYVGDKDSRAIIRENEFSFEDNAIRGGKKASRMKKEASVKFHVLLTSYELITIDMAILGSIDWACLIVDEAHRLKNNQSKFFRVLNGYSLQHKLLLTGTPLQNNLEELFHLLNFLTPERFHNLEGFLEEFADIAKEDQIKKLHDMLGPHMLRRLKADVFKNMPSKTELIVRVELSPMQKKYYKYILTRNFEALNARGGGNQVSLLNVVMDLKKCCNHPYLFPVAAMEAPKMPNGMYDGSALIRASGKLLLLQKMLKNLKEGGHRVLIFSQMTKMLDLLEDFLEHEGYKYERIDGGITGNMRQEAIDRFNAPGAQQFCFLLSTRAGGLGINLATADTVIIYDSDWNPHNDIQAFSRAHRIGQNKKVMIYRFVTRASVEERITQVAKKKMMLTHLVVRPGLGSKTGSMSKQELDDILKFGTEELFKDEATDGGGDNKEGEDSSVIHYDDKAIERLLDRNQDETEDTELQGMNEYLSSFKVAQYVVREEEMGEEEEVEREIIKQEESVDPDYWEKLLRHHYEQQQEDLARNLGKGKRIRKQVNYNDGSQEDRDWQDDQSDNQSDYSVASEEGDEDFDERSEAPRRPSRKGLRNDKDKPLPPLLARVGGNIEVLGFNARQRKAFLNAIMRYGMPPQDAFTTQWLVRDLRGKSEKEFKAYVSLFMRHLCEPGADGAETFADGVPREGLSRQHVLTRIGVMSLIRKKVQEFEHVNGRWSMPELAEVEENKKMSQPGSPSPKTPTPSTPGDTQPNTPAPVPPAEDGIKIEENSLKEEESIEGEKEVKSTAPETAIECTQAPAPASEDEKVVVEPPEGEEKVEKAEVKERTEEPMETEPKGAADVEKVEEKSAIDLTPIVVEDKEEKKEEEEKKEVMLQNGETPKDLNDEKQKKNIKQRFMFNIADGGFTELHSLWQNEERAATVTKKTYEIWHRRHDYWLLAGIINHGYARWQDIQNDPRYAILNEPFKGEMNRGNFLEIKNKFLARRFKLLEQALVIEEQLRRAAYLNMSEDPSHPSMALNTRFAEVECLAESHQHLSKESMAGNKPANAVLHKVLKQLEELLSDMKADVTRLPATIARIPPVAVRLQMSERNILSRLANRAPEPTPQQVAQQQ
UniProt Q96NY7: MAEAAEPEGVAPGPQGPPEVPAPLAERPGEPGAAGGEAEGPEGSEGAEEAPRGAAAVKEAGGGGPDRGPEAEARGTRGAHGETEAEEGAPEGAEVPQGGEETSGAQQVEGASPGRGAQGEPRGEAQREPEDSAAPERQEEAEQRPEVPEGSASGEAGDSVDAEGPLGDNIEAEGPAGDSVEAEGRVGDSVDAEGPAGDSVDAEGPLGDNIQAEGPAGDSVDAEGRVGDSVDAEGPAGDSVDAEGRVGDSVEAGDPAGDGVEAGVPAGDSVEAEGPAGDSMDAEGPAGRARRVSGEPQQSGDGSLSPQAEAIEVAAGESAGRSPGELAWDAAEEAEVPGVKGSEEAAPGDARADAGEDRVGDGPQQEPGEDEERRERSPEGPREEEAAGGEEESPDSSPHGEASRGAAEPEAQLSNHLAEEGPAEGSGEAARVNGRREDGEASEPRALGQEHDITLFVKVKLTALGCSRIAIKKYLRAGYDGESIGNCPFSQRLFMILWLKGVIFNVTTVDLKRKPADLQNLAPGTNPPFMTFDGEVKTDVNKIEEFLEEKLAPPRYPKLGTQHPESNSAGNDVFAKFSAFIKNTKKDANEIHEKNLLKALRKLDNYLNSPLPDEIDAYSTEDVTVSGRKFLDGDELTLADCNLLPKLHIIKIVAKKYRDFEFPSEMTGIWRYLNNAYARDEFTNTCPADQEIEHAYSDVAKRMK
UniProt Q8N1G2: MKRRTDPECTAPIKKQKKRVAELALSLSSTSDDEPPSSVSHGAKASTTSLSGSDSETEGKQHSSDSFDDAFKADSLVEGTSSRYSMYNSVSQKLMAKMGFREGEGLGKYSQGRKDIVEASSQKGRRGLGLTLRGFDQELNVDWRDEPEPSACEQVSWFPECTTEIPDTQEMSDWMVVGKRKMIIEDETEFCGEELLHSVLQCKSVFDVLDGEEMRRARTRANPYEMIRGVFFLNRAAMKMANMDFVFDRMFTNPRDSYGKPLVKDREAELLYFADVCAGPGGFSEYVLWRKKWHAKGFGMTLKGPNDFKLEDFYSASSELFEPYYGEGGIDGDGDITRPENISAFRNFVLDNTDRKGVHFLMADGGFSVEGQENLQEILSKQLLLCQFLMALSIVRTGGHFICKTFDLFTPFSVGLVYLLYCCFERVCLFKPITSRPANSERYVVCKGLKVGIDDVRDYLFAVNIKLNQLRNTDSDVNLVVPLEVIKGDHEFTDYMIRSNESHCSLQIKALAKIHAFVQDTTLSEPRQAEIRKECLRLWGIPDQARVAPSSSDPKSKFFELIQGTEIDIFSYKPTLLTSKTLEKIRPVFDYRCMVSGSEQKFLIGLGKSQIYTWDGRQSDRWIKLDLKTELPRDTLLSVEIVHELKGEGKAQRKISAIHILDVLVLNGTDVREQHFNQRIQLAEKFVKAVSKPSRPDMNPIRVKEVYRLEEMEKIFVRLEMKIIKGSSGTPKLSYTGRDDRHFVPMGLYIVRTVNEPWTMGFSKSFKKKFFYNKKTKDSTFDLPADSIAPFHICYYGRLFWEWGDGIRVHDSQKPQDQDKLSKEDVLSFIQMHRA

Compound in the first assay: O=C1NC(=O)C(c2cnc3ccccn23)=C1c1cn2c3c(cc(F)cc13)CN(C(=O)N1CCCCC1)CC2
Description: log2 fold change, soluble protein after heating vs DMSO (PISA); higher = thermal stabilisation; K562 lysate, 10 uM; active = over 0.2 and 3.5 SD of the protein, either way, in both replicates (recomputed). Put shortly: (§1)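 Thermal stability, expressed as log-two fold change relative to solvent controls, is given from duplicates. Crude K562 extract in PBS pH 7.4 with 1 mM MgCl2, at 1 mg/mL protein, was treated with 10 μM compound for 30 min and heated in aliquots for 3 min across 48°C-58°C. After pooling, adjustment to 0.5% NP-40 at 4°C and centrifugation at 21,000xg for 90 min, supernatant protein was measured by TMTpro 16plex LC-MS/MS with channel sums equalised.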
Consider CLTA isoform 2 (UniProt P09496), for which the log2 fold change was inactive: 0.004.
With CIAO3 (UniProt Q9H6Q4), the log2 fold change was inactive: 0.033.
The same measure, in the same setting: the figure for CMTM3 (UniProt Q96MX0) is inactive: -0.03.

Compound in a further assay: c1cn2cc(-c3ccc4cn[nH]c4c3)nc(Nc3ccc(N4CCOCC4)cc3)c2n1 [entospletinib]
The description is as above. In outline: as §1
With CLTC (UniProt Q00610), the log2 fold change was inactive: 0.014.
The same measure, in the same setting: the figure for CISD2 (UniProt Q8N5K1) is inactive: -0.011.
On to CHAF1B (UniProt Q13112), for which the log2 fold change is inactive: 0.014.
Regarding CLK3 (UniProt P49761), the log2 fold change was inactive: -0.002.
For the target CHCHD6 (UniProt Q9BRQ6), the log2 fold change was inactive: 0.038.
As to CHMP6 (UniProt Q96FZ7), the log2 fold change was inactive: -0.018.
In the case of CLTA (UniProt P09496), the log2 fold change was inactive: -0.022.
Take CMSS1 (UniProt Q9BQ75): the log2 fold change was inactive: -0.013.
Take CLUH, A0A494C0R8: the log2 fold change was inactive: 0.033.
Still for that read-out and setting: the figure for CHD4 isoform 2 (UniProt Q14839) is inactive: -0.01; for CLIC1 (UniProt O00299) it is inactive: 0.009.
Regarding CLPTM1 (UniProt O96005), the log2 fold change is inactive: -0.034.
For CHD8 (UniProt Q9HCK8), the log2 fold change is inactive: -0.035.
Turning to CLIC6 (UniProt Q96NY7), the log2 fold change is inactive: 0.002.
Consider CIC (UniProt I3L2J0), for which the log2 fold change was inactive: 0.033.
Turning to CIP2A (UniProt Q8TCG1), the log2 fold change is inactive: 0.008.
Consider CLNS1A (UniProt P54105), for which the log2 fold change was inactive: -0.004.
Regarding CHD3 isoform 3 (UniProt Q12873), the log2 fold change is inactive: 0.002.
CHUK (UniProt O15111): the log2 fold change is inactive: 0.012.
For the target CKS1B (UniProt P61024), the log2 fold change was inactive: -0.021.
Regarding CHERP (UniProt Q8IWX8), the log2 fold change is inactive: -0.009.
Turning to CMTR1 (UniProt Q8N1G2), the log2 fold change was inactive: 0.015.
Regarding CLTA isoform 2 (UniProt P09496), the log2 fold change was inactive: 0.083.
The same measure, in the same setting: the figure for CIAO3 (UniProt Q9H6Q4) is inactive: -0.01; for CMTM3 (UniProt Q96MX0) it is inactive: -0.004.

For the origin of these results see the supplement of paper PMC10849652.
